Measurements from paper PMC4933229.
These are yes or no findings as the source states them, for the method shown. Some binding calls cover weakened binding; strength is not graded here.

By UniProt entry, the sequences of proteins in these tests, tags left out.
UniProt P11229: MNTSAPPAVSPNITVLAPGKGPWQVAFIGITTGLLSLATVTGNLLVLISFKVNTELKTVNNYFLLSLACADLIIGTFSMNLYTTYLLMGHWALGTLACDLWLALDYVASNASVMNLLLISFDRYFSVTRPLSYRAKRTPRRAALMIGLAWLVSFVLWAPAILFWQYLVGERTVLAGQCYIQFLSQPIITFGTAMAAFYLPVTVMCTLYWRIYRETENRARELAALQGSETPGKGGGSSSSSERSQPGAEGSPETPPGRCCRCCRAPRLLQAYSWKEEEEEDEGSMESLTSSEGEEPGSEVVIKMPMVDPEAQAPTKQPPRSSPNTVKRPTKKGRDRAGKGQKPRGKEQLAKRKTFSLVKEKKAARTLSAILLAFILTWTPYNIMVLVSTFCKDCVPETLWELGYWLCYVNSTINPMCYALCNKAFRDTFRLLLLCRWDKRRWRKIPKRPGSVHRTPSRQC

How the values were obtained:
[1] = target: human M1 muscarinic receptor with C-terminally fused mEGFP (human) (UniProt P11229); assay: spatial intensity distribution analysis (SpIDA); as a1, cells (100 ng/ml doxycycline) treated with N-methylscopolamine 50 nM for 16 h
[2] = target: human M1 muscarinic receptor with C-terminally fused mEGFP (human) (UniProt P11229); assay: spatial intensity distribution analysis (SpIDA); as a1, cells (100 ng/ml doxycycline) treated with cytochalasin D 2.5 μg/ml for 3 h
[3] = target: human M1 muscarinic receptor with C-terminally fused mEGFP (human) (UniProt P11229); assay: spatial intensity distribution analysis (SpIDA); as a1, cells (100 ng/ml doxycycline) treated with atropine 100 nM for 16 h

Measured: binding

human M1 muscarinic receptor with C-terminally fused mEGFP (from UniProt P11229 1-460)
binds: [1] | [2] | [3]
